Laboratory results published in the supplement of paper PMC3334620.
The full ranking holds about 33,000 sequences; the median of “E-score (-0.5 to 0.5)” is about -0.0014, and the highest 2% start at about 0.25. The list shows a part of the results.

Biological target: T1, Cad1 (UniProt P24813)
T1 sequence: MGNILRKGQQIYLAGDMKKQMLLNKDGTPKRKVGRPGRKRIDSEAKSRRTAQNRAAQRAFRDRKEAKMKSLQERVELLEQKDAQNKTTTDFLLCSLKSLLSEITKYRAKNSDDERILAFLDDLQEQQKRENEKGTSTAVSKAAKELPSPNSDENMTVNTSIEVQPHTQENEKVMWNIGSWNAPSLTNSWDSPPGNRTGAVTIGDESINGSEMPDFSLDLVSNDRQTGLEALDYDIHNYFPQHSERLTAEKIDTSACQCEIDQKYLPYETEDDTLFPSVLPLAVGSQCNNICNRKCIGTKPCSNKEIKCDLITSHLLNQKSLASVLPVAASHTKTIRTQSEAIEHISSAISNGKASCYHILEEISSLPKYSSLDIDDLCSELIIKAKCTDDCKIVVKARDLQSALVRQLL
Experiment: PBM E-score (8-mer binding enrichment) (E-score (-0.5 to 0.5)); higher = stronger / more preferred TF binding
Conditions: protein concentration: 100 nM; construct: GST-full length
Procedure, shortened: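 Full-length yeast transcription factors or their DNA-binding domains, GST-tagged and expressed with PURExpress, were applied at about 100-200 nM to universal all-10-mer Agilent arrays. These arrays had been made double-stranded by primer extension on fresh or once-stripped slides. Detection used fluorescent anti-GST, normalisation used masliner, and E-scores for ungapped eight-base words pooled with reverse complements came from the Universal PBM Analysis Suite.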

Sequence | PBM E-score
ATGTTTCG | 0.198
CGTGGTAA | 0.0322
ATTTGTGC | 0.148
CCACCTGG | -0.251
ACCTACAG | -0.00297
CTCCGTGA | 0.036
ACATACAG | 0.127
CCAATTAC | 0.0696
AATGGTAG | -0.0146
GACCACAA | -0.0648
GTCGCTGA | -0.0513
CATCAAGG | -0.123
GTACTAAC | 0.142
CCGAAAAC | -0.0183
AAGACTGA | -0.164
GAGACTAC | -0.153
AGCCCCCC | -0.421
ACGGCAAA | 0.124
CAATATCG | 0.163
ACCCTTTA | -0.0467
CGGAGCCA | -0.0948
CCATTACA | 0.129
GAGGGCAC | -0.143
ATTATAAG | 0.186
GCTTAGGA | 0.0729

Sequence | PBM E-score
AAAAGCGA | 0.19
GTCCTTGA | 0.0279
CCTATGCG | -0.0024
AACCGTCG | 0.115
ATCCCGCA | 0.0328
CATCGTGC | 0.162
GCATCTTA | 0.128
CGCAGAGC | -0.12
CTAACTGC | -0.0676
AACCCCCC | -0.448
ATGCCCCC | -0.362
CATAGCCC | -0.334
ATAAACTG | -0.0144
TAGAATAA | 0.145
CCGGAAGG | -0.0832
CTTTAACC | -0.0991
AACTATGC | 0.0465
ACGTTGAG | 0.102
AAGCCAAA | 0.0472
CATCTGGC | -0.0951
AAATTATA | 0.237
CTGGAATC | -0.0416
TCATTGAA | -0.151
GAGCGGGA | -0.176
CATTTCGA | 0.0952

Sequence | PBM E-score
CACAGGCC | -0.0883
GGGCACAC | -0.172
AAATGCTG | 0.186
AGCGATGG | -0.0366
GAATAAGA | 0.0517
CTGGCCGC | 0.0327
CTCAGTAA | -0.0268
AATTAAGC | 0.108
CCTGAGTA | 0.187
CTTGGTGA | 0.0215
CGGTCTTC | -0.123
GTGATCGA | 0.171
GGAGTATA | 0.0846
TCCGGCGA | 0.215
GACCTCCA | -0.00085
CCGGACAA | 0.137
AACGCGGC | 0.00605
GTCCCTTA | -0.0332
ATTGGCCA | 0.0679
TGGTGCAA | -0.318
ATGAATGA | 0.13
GGAAAGCC | 0.0347
CCCATGAG | -0.0462
GAAGATGA | 0.00518
ACCGTACA | 0.0124

Sequence | PBM E-score
GAGAGCTA | -0.0452
AACGACGA | 0.133
CTGACTAC | 0.0363
ACTAAACG | 0.0217
GTACGCCA | -0.198
CTCTATAA | -0.0783
ATAAGCAC | 0.208
TACTGACA | 0.215
CATATAGG | -0.112
ACTGTGAT | -0.0504
ACCGGCGA | 0.194
CTGGGTGC | -0.317
ACATCATC | 0.209
GGCCAATA | 0.0295
AAACTATC | 0.0983
CTCGTAGA | -0.299
AGCTTACA | 0.351
CGATTCCG | -0.0339
GAAGTGGA | -0.0722
AAACCAGC | 0.0851
TAGCGGCA | 0.0985
GGGAGGAA | -0.0506
AAATACCG | 0.0761
CACGTCCC | -0.157
AGGTTGAA | 0.0887

Sequence | PBM E-score
AAGAGCTG | 0.0198
TGTAGGAA | -0.0802
ATGTCCTA | 0.0405
ACATCCCT | 0.0496
CCTGTTTC | -0.0261
CCGAAATA | 0.253
ATTGAAAG | 0.0649
AGCAGTCA | -0.123
TTATAGAA | 0.167
CGCCACAG | -0.16
AGGCCCAA | 0.0278
TATCCATA | 0.232
CCTGCAGC | 0.0112
CCGTTACA | 0.161
GCCGCATA | 0.0495
AAACCGTG | 0.0205
ACTTTTGG | 0.0896
TATCGGGA | 0.0969
AAATAGAT | 0.168
AGTTAGTG | 0.212
TGCCAACA | -0.0605
ATTGACCC | 0.00304
ACGGCGCT | -0.0736
ACTTAAGG | 0.00123
ATAGGTGG | -0.153

Sequence | PBM E-score
ACTCAACG | -0.0251
ACCCCAAA | 0.0445
CCTAAATA | -0.121
AGCACCTC | -0.0619
GGCTCATA | 0.0877
CTGATAGC | -0.057
CATTCCGA | 0.179
CAAATCAG | 0.155
GGGGCCCA | -0.32
TACGACGA | 0.0477
AAGATCTG | 0.0512
CTCCCAAA | -0.0721
AAAATGGT | 0.174
CGCATCAA | 0.023
AAACAAAC | 0.0914
AACAAGGG | -0.125
ATATTTCA | 0.212
GGACGAAC | 0.207
CCGAATAC | -0.0293
AAATAATG | 0.152
GTAAGATA | 0.18
ACCCTGGC | -0.0731
CGTTGTAA | -0.00029
ATATGGTA | 0.0411
AACGTAGT | -0.0796

Sequence | PBM E-score
CACATTGA | 0.098
GCTAAGCA | 0.002
ACTACATC | 0.0704
CTCGTCAC | 0.164
GATCACAA | 0.225
ATATACAA | 0.161
TATCAAAA | 0.224
CCAAGCAC | 0.0229
GCCCGAGA | 0.172
CAACTTTA | 0.167
GAAACGGC | 0.0975
ACGATCGT | -0.0266
AGAACCAC | -0.163
GTGTGTAA | 0.0205
AAGGCCAT | 0.0298
CTGCGCAC | 0.119
CCTCTTGA | -0.15
GGCCTGTA | -0.0887
GTGGGGAA | 0.109
GCGAAACA | 0.165
ACCATTGC | -0.0675
CGAGTTAC | 0.0853

Part of the list above, as a markdown table:

| Sequence | PBM E-score |
| --- | --- |
| TGCCAACA | -0.0605 |
| ATTGACCC | 0.00304 |
| ACGGCGCT | -0.0736 |
| ACTTAAGG | 0.00123 |
| ATAGGTGG | -0.153 |
| ACTCAACG | -0.0251 |
| ACCCCAAA | 0.0445 |
| CCTAAATA | -0.121 |
| AGCACCTC | -0.0619 |
| GGCTCATA | 0.0877 |
| CTGATAGC | -0.057 |
| CATTCCGA | 0.179 |
| CAAATCAG | 0.155 |
| GGGGCCCA | -0.32 |
| TACGACGA | 0.0477 |
| AAGATCTG | 0.0512 |
| CTCCCAAA | -0.0721 |
| AAAATGGT | 0.174 |
| CGCATCAA | 0.023 |
| AAACAAAC | 0.0914 |
| AACAAGGG | -0.125 |
| ATATTTCA | 0.212 |
| GGACGAAC | 0.207 |
| CCGAATAC | -0.0293 |
| AAATAATG | 0.152 |
| GTAAGATA | 0.18 |
| ACCCTGGC | -0.0731 |
| CGTTGTAA | -0.00029 |
| ATATGGTA | 0.0411 |
| AACGTAGT | -0.0796 |
| CACATTGA | 0.098 |
| GCTAAGCA | 0.002 |
| ACTACATC | 0.0704 |
| CTCGTCAC | 0.164 |
| GATCACAA | 0.225 |
| ATATACAA | 0.161 |
| TATCAAAA | 0.224 |
| CCAAGCAC | 0.0229 |
| GCCCGAGA | 0.172 |
| CAACTTTA | 0.167 |
| GAAACGGC | 0.0975 |
| ACGATCGT | -0.0266 |
| AGAACCAC | -0.163 |
| GTGTGTAA | 0.0205 |
| AAGGCCAT | 0.0298 |
| CTGCGCAC | 0.119 |
| CCTCTTGA | -0.15 |
| GGCCTGTA | -0.0887 |
| GTGGGGAA | 0.109 |
| GCGAAACA | 0.165 |
| ACCATTGC | -0.0675 |
